The values below come from PubChem BioAssay AID493014 (National Center for Advancing Translational Sciences (NCATS), 2011).

The nature of the experiment: qHTS Assay to Find Inhibitors of Chronic Active B-Cell Receptor Signaling. The note with it: ABC-DLBCL IkBa-CBG/CBR reporter, luminescence ratio (green luciferase fused to IkBa over red control in TMD8 lymphoma cells), 4 h. In outline: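 Doxycycline induced both beetle luciferases in TMD8 lymphoma cells; IKK-driven degradation limits the IkappaBalpha-fused green signal, while red luminescence normalises for cell number and nonspecific effects. Compounds tested up to 46 uM, 4 hrs.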

Setting [1] is: measured here: CBR red luminescence, cell number.
[2] abbreviates: measured here: IkBa-CBG green luminescence.

Where “and” joins values, the source holds several entries; their conditions need not be identical. Equal values may be shown once. The list shows a part of the results. Further columns of the screen follow, without active or inactive calls. Compounds called inactive in the main read-out are mostly missing here. Potencies come from curve fits of mixed quality, noted in brackets.

As for `Clc1ccc2nc(CSc3ccccc3)cn2c1`, under setting [1], the AC50 is 12.6 µM [falling, single point].
For `O=C(COC(=O)c1cccc(O)c1)c1ccccc1`, the AC50 under setting [1] was 16.4 µM [falling, single point].
For `O=C(CSc1nc2ccccc2c(=O)[nH]1)c1ccc(O)c(O)c1`, under setting [1], the AC50 is 2.59 µM [rising, partial curve, poor fit].
Consider `c1ccc2nc(-c3nc4ccccc4[nH]3)ccc2c1`, for which the half-maximal activity concentration (AC50) under setting [1] is 4.11 µM [falling, full curve].
As to `CC(=C1C(=O)c2ccccc2C1=O)N1CCN(C/C=C/c2ccccc2)CC1`, the AC50 under setting [1] was 0.13 µM [falling, full curve, poor fit].
In the case of `COc1ccccc1C=NNC(=O)c1ccccc1OCCOc1ccccc1`, under setting [1], the AC50 was 10.3 µM [falling, single point].
Regarding `CN=C1SC(CC(=O)Nc2cccc(C(F)(F)F)c2)C(=O)N1C` (centres undefined), under setting [1], the AC50 is 16.4 µM [rising, partial curve].
Turning to `CCOC(=O)c1c2ccccc2[n+]([O-])n1CCO`, the AC50 under setting [1] was 29.1 µM [falling, partial curve, poor fit].
The same measure, in the same setting: for `Cc1cc(-c2n[nH]c(=S)n2/N=C/C(Br)=C/c2ccccc2)n[nH]1` the value was 11.6 µM [falling, partial curve]; for `Cc1c(N=N/C(C(=O)Nc2ccccc2)=C(/O)c2ccccc2)c(=O)n(-c2ccccc2)n1C`, 7.08 µM [falling, partial curve, poor fit]; for `c1ccc(-c2nc(-c3ccco3)n3ccccc23)cc1`, 25.9 µM [falling, single point].
Consider `Cc1ccc(NC(=O)CSC(C)C(=O)NCCc2ccccn2)cc1` (centres undefined), for which the AC50 under setting [1] is 0.0891 µM [rising, full curve, poor fit].
Turning to `COC(=O)C1=CN(Cc2ccc(OC)cc2)C=C(C(=O)OC)C1c1cccs1`, under setting [1], the AC50 is 35.5 µM [falling, partial curve, poor fit].
Regarding `O=C(O)c1cc2cc(Cl)cc(Cl)c2oc1=O`, the AC50 under setting [1] was 31.6 µM [rising, single point].
`COCCC(=O)N1CCc2ccc(NC(=O)c3ccc(C(F)(F)F)cc3)cc2C1`: the AC50 under setting [1] is 5.01 µM [rising, partial curve, poor fit].
The same measure, in the same setting: then `C/C(=N\Nc1ccc(S(N)(=O)=O)cc1[N+](=O)[O-])c1ccco1`, with 35.5 µM [rising, single point].
On to `O=C(CSc1nnnn1-c1ccccc1)Nc1nsc(-c2ccc(Cl)cc2)n1`, for which the AC50 under setting [2] is 5.17 µM [falling, partial curve, poor fit].
Take `Oc1c(Br)cc(Br)cc1CNc1nccs1`: the AC50 under setting [1] is 5.01 µM [rising, full curve, poor fit].
Same read-out and setting: for `CC1(C)Oc2ccccc2OC1(O)c1ccc2ccccc2n1` (centres undefined) the value was 8.2 µM [rising, partial curve, poor fit].
For the compound `Cc1nnc2sc(SCc3ccc(Cl)cc3)nn2c1=O`, the concentration at half-maximal activity (AC50) under setting [1] was 0.082 µM [falling, full curve].
Still for that read-out and setting: for `CCNS(=O)(=O)c1c(C)cc(C)c(N(C)S(=O)(=O)c2ccccc2)c1C` the value was 28.2 µM [rising, single point]; for `N#CC1=C(N)Oc2c(ccc3cccnc23)C1c1cccnc1` (centres undefined), 0.259 µM [falling, full curve, poor fit].
For `Cc1ccc(-n2ncc3c(=O)n(-c4ccc(C)c(C)c4)c(-c4ccco4)nc32)cc1`, the AC50 runs as follows: under setting [1], 3.66 µM [falling, full curve]; under setting [2], 3.66 µM [rising, full curve].
As for `O=C(O)c1c(-c2ccccc2)c2oc3ccccc3c2[nH]c1=O`, the concentration at half-maximal activity (AC50) under setting [1] is 35.5 µM [falling, single point].
With `COC(=O)c1scc(-c2ccccc2)c1S(=O)(=O)Nc1ccccc1`, the AC50 under setting [1] is 31.6 µM [falling, single point].
On to `Cc1ccc(NC(=O)c2ccc(Cl)c(S(=O)(=O)N3CCCCCC3)c2)nc1`, for which the AC50 under setting [1] was 3.66 µM [falling, partial curve, poor fit].
Consider `COc1ccc(NC(=O)CCN2C(=O)c3ccccc3C2=O)cc1`, for which the concentration at half-maximal activity (AC50) under setting [1] was 15.8 µM [rising, single point].
For `Cc1ccc(N2CC(NC(=O)/C=C\c3ccc4c(c3)OCO4)CC2=O)cc1C` (centres undefined), under setting [1], the concentration at half-maximal activity (AC50) was 35.5 µM [falling, single point].
For the compound `Cc1ccc(NC(=O)Nc2ccc3c(c2)OCO3)nc1`, the half-maximal activity concentration (AC50) under setting [1] is 0.0891 µM [rising, full curve, poor fit].
As for `Cc1ccc(C(=O)CNc2cc(C)ccc2C)cc1`, the AC50 under setting [1] was 25.1 µM [falling, single point].
On to `CCOc1ccc(NS(=O)(=O)c2ccc(C(=O)N(C)CC(=O)Nc3ccc(OC)cc3)cc2)cc1`, for which the concentration at half-maximal activity (AC50) under setting [1] is 2.91 µM [falling, full curve].
Still for that read-out and setting: then `COc1cccc(C(=O)Nc2cccc3cccnc23)c1OC`, with 11.2 µM [rising, partial curve]; and `O=C(COC(=O)Cc1ccc(S(=O)(=O)N2CCOCC2)s1)NCc1ccc(Cl)cc1`, with 20.6 µM [rising, single point]; and `Cn1c(=O)n(C)c2cc(NS(C)(=O)=O)ccc21`, with 25.1 µM [rising, single point].
Take `CCc1nc(SCC(=O)c2ccccc2)c2ccccc2n1`: the AC50 under setting [1] was 35.5 µM [falling, single point].
In the case of `CCn1cc(CNCc2cn(C)nc2-c2ccc(C3CCCCC3)cc2)cn1`, the AC50 under setting [1] is 35.5 µM [falling, single point].
The same measure, in the same setting: for `COC(=O)c1c(NC(=O)CSc2nnc(C)c(=O)[nH]2)sc(C)c1C` the value was 35.5 µM [falling, single point]; for `CCC1CCCCN1C(=O)COC(=O)c1ccc(Br)o1` (centres undefined), 0.82 µM [rising, full curve, poor fit].
For `COC(=O)c1ccc2nc(C(F)(F)F)[nH]c2c1`, the AC50 under setting [1] is 35.5 µM [falling, single point].
On to `Oc1ccc(COCc2ccccc2)c2cccnc12`, for which the half-maximal activity concentration (AC50) by setting is: under setting [1], 35.5 µM [falling, single point] and 23.1 µM [falling, partial curve]; under setting [2], 3.16 µM [falling, full curve].
Consider `COc1ccc(Cl)cc1CN1CCOCC1`, for which the AC50 under setting [1] was 28.2 µM [rising, single point].
Regarding `CC(C)N(CCc1ccncc1)C(=S)Nc1cccc(Cl)c1`, the concentration at half-maximal activity (AC50) under setting [1] was 2 µM [rising, full curve, poor fit].
